The record followed here is publication PMC11757143, “Generation and characterization of OX40-ligand fusion protein that agonizes OX40 on T-Lymphocytes” (Frontiers in Immunology, 2025).

Sequences of proteins named here, by UniProt entry; tags and fusion partners are left off. A change or cut given only in a name is not applied to a line headed by its entry.
UniProt P39039: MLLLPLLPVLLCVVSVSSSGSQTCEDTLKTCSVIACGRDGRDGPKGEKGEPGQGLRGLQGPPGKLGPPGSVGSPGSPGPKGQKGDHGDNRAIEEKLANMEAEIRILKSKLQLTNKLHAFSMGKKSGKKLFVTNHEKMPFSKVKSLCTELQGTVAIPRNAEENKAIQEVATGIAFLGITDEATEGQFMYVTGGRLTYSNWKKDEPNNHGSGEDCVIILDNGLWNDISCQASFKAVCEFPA

These are yes or no findings as the source states them, for the method shown. Some entries that bind do so weakly or less than the wild type. For part of these data: Tags and fused reporters may be left off the sequences shown.

Test [1] addresses T1, cell surface OX40 expressed by the T cell hybridoma (UniProt P47741).
T1 sequence: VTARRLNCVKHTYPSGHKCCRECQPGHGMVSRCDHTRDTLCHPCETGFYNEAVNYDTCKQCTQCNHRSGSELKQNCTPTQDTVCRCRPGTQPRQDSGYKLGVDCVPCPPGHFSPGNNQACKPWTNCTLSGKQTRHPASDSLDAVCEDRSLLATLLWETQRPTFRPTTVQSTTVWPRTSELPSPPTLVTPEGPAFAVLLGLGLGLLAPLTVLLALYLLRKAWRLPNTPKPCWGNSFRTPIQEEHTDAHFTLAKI
The test can be described thus: flow cytometry on cells; OX40+ T cell hybridoma incubated with the OX40L proteins (3 or 0.3 µg/mL), then anti-PA tag antibody and anti-rat IgG2a-FITC; only the binder purified. For orientation: Flow cytometry measures light scatter and fluorescence of single cells or particles in a stream.

In another test the target is T2, mouse Ox40-Fc (mouse) (UniProt P47741).
T2 sequence: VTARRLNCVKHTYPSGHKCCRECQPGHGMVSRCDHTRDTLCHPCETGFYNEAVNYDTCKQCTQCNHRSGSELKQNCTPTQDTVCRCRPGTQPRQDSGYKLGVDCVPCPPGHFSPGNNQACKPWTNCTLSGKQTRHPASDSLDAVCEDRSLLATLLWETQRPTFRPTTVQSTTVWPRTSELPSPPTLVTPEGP
Description: ELISA; plates pre-coated with 0.4 µg/mL OX40-Fc; purified OX40L proteins serially diluted and added; detected with anti-PA tag rat IgG (NZ-1) and anti-rat IgG-HRP; both purified.

Regarding “MBL-scOX40L (from UniProt P39039 18-126; P43488 51-198; P43488 51-198; P43488 51-198) (ligand)”, the binding result (in test [1]; in the test with mouse Ox40-Fc (mouse)) was “binds” in each case.
Regarding “MBL-OX40L (from UniProt P39039 18-126; P43488 51-198) (ligand)”, the binding result (in test [1]; with mouse Ox40-Fc (mouse)) was “binds” throughout.
As for “Fc-MBL-OX40L (from UniProt P39039 18-126; P43488 51-198) (Fc fusion)”, the binding result (in test [1]; in the test with mouse Ox40-Fc (mouse)) was “binds” each time.
